{"source": "PubChem BioAssay AID1224830 | NIAID – 2016", "screen": "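Regulators of TLR4 signalling towards TNF-alpha in macrophage-like cells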 (primary screen)", "cells": "human THP-1 monocytic leukaemia cells, TNF dual-luciferase reporter clone, PMA-differentiated to macrophage-like cells", "reagents": "siRNA pool against human genes, 50 nM", "duration": "LPS for 4 h, given about 3 days after siRNA transfection", "challenge": "bacterial LPS (TLR4 ligand), 10 ng/ml", "read-out": "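Ratio of firefly to renilla light, scaled to the plate median and expressed as a robust z-score per replicate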", "reading the numbers": "TNF reporter robust z-score: higher = stronger TNF reporter response to LPS", "hit rule": "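a well is active when its z-score exceeds 2.8 or falls below -1.5; control wells carry no call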", "note": "This is one part, drawn at random, of about 18,000 reagents tested. About 2,900 of them (16%) count as active. 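Calls are made per well; low scores hint the gene aids the LPS response, high scores that it dampens it.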 Entries without a mark were called inactive. The numbers tell different reagents against one gene apart. Repeated entries: four replicate wells of each siRNA pool. No sequences are given here."}
{"Gene": "GPRASP2 (G protein-coupled receptor associated sorting protein 2)", "pool no.": 1, "TNF reporter robust z-score": 0.25}
{"Gene": "GPRASP2 (G protein-coupled receptor associated sorting protein 2)", "pool no.": 1, "TNF reporter robust z-score": 1}
{"Gene": "GPRASP2 (G protein-coupled receptor associated sorting protein 2)", "pool no.": 1, "TNF reporter robust z-score": -0.34}
{"Gene": "GPRASP2 (G protein-coupled receptor associated sorting protein 2)", "pool no.": 1, "TNF reporter robust z-score": 0.45}
{"Gene": "ACKR5 (atypical chemokine receptor 5)", "pool no.": 1, "TNF reporter robust z-score": 0.62}
{"Gene": "ACKR5 (atypical chemokine receptor 5)", "pool no.": 1, "TNF reporter robust z-score": 2.79}
{"Gene": "ACKR5 (atypical chemokine receptor 5)", "pool no.": 1, "TNF reporter robust z-score": 2.34}
{"Gene": "ACKR5 (atypical chemokine receptor 5)", "pool no.": 1, "TNF reporter robust z-score": 0.34}
{"Gene": "STATH (statherin)", "pool no.": 1, "TNF reporter robust z-score": 1.67}
{"Gene": "STATH (statherin)", "pool no.": 1, "TNF reporter robust z-score": 0.7}
{"Gene": "STATH (statherin)", "pool no.": 1, "TNF reporter robust z-score": 1.48}
{"Gene": "STATH (statherin)", "pool no.": 1, "TNF reporter robust z-score": 1.43}
{"Gene": "PAX7 (paired box 7)", "pool no.": 1, "TNF reporter robust z-score": -0.18}
{"Gene": "PAX7 (paired box 7)", "pool no.": 1, "TNF reporter robust z-score": 0}
{"Gene": "PAX7 (paired box 7)", "pool no.": 1, "TNF reporter robust z-score": -0.22}
{"Gene": "PAX7 (paired box 7)", "pool no.": 1, "TNF reporter robust z-score": -0.09}
{"Gene": "TOR1AIP2 (torsin 1A interacting protein 2)", "pool no.": 1, "TNF reporter robust z-score": 1.91}
{"Gene": "TOR1AIP2 (torsin 1A interacting protein 2)", "pool no.": 1, "TNF reporter robust z-score": 1.8}
{"Gene": "TOR1AIP2 (torsin 1A interacting protein 2)", "pool no.": 1, "TNF reporter robust z-score": 1.68}
{"Gene": "TOR1AIP2 (torsin 1A interacting protein 2)", "pool no.": 1, "TNF reporter robust z-score": 2.49}
{"Gene": "TOR1AIP2 (torsin 1A interacting protein 2)", "pool no.": 2, "TNF reporter robust z-score": 0.36}
{"Gene": "TOR1AIP2 (torsin 1A interacting protein 2)", "pool no.": 2, "TNF reporter robust z-score": 1.11}
{"Gene": "TOR1AIP2 (torsin 1A interacting protein 2)", "pool no.": 2, "TNF reporter robust z-score": 1.97}
{"Gene": "TOR1AIP2 (torsin 1A interacting protein 2)", "pool no.": 2, "TNF reporter robust z-score": 1.46}
{"Gene": "PLSCR5 (phospholipid scramblase family member 5)", "pool no.": 1, "TNF reporter robust z-score": 0.19}
{"Gene": "PLSCR5 (phospholipid scramblase family member 5)", "pool no.": 1, "TNF reporter robust z-score": -0.01}
{"Gene": "PLSCR5 (phospholipid scramblase family member 5)", "pool no.": 1, "TNF reporter robust z-score": 0.12}
{"Gene": "PLSCR5 (phospholipid scramblase family member 5)", "pool no.": 1, "TNF reporter robust z-score": 0.04}
{"Gene": "VN1R2 (vomeronasal 1 receptor 2)", "pool no.": 1, "TNF reporter robust z-score": -0.66}
{"Gene": "VN1R2 (vomeronasal 1 receptor 2)", "pool no.": 1, "TNF reporter robust z-score": -0.28}
{"Gene": "VN1R2 (vomeronasal 1 receptor 2)", "pool no.": 1, "TNF reporter robust z-score": -0.72}
{"Gene": "VN1R2 (vomeronasal 1 receptor 2)", "pool no.": 1, "TNF reporter robust z-score": 0.78}
{"Gene": "BMP2K (BMP2 inducible kinase)", "pool no.": 1, "TNF reporter robust z-score": 0}
{"Gene": "BMP2K (BMP2 inducible kinase)", "pool no.": 1, "TNF reporter robust z-score": -0.2}
{"Gene": "BMP2K (BMP2 inducible kinase)", "pool no.": 1, "TNF reporter robust z-score": "3.35 (active)"}
{"Gene": "BMP2K (BMP2 inducible kinase)", "pool no.": 1, "TNF reporter robust z-score": 0.83}
{"Gene": "COL8A1 (collagen type VIII alpha 1 chain)", "pool no.": 1, "TNF reporter robust z-score": 0.12}
{"Gene": "COL8A1 (collagen type VIII alpha 1 chain)", "pool no.": 1, "TNF reporter robust z-score": 0.85}
{"Gene": "COL8A1 (collagen type VIII alpha 1 chain)", "pool no.": 1, "TNF reporter robust z-score": 0.13}
{"Gene": "COL8A1 (collagen type VIII alpha 1 chain)", "pool no.": 1, "TNF reporter robust z-score": -0.57}
{"Gene": "SNAPC1 (small nuclear RNA activating complex polypeptide 1)", "pool no.": 1, "TNF reporter robust z-score": 1.11}
{"Gene": "SNAPC1 (small nuclear RNA activating complex polypeptide 1)", "pool no.": 1, "TNF reporter robust z-score": 2.04}
{"Gene": "SNAPC1 (small nuclear RNA activating complex polypeptide 1)", "pool no.": 1, "TNF reporter robust z-score": 2.23}
{"Gene": "SNAPC1 (small nuclear RNA activating complex polypeptide 1)", "pool no.": 1, "TNF reporter robust z-score": 1.25}
{"Gene": "FXYD1 (FXYD domain containing ion transport regulator 1)", "pool no.": 1, "TNF reporter robust z-score": -0.59}
{"Gene": "FXYD1 (FXYD domain containing ion transport regulator 1)", "pool no.": 1, "TNF reporter robust z-score": -0.33}
{"Gene": "FXYD1 (FXYD domain containing ion transport regulator 1)", "pool no.": 1, "TNF reporter robust z-score": -0.07}
{"Gene": "FXYD1 (FXYD domain containing ion transport regulator 1)", "pool no.": 1, "TNF reporter robust z-score": 1.31}

In a second layout: entries from further up.
BMP2K (BMP2 inducible kinase)
- TNF reporter robust z-score: 3.35 (active)

BMP2K (BMP2 inducible kinase)
- TNF reporter robust z-score: 0.83

COL8A1 (collagen type VIII alpha 1 chain)
- TNF reporter robust z-score: 0.12

COL8A1 (collagen type VIII alpha 1 chain)
- TNF reporter robust z-score: 0.85
